PubChem BioAssay AID1259254 – NCATS – 2017
Here is one part, drawn at random, of about 59,000 reagents tested. About 1,550 of all reagents (2.6%) count as active. 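G2 share is only a proxy for re-replication; each gene was hit by three separate siRNAs, and active genes were retested.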 Reagents against one gene are numbered here. Further read-outs or replicates are left out here. The record does not give: the amount of reagent.

- Screen: 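Genome-wide screen for genes that prevent DNA re-replication in cancer cells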 (primary screen)
- Cell system: human HCT116 colorectal cancer cells
- Reagent: single siRNA against human genes
- Timing: 3 days
- Detection: 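Imaged Hoechst DNA stain sorts each cell into a cycle phase by DNA amount; per plate, G2 fraction set to 0% for non-targeting and 100% for GMNN siRNA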
- Direction: G2 robust z-score and G2 cells, % of GMNN control: higher = more G2 cells, more excess DNA replication
- Call rule: 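Active siRNAs have a G2 robust z of 5 or more median absolute deviations over the median, which in these data means about 38% or higher of GMNN control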

G2 robust z-score | G2 cells, % of GMNN control | Outcome | Target gene | reagent no.
0.249 | 4.72 | inactive | OR5T1 | 1
0.749 | 8.24 | inactive | OR5T1 | 2
2.02 | 17.1 | inactive | OR5T1 | 3
-1.06 | -4.49 | inactive | MTFMT | 1
1.84 | 15.9 | inactive | MTFMT | 2
-0.589 | -1.18 | inactive | MTFMT | 3
1.68 | 14.8 | inactive | C1orf94 | 1
-0.518 | -0.675 | inactive | C1orf94 | 2
0.377 | 5.62 | inactive | C1orf94 | 3
-0.387 | 0.247 | inactive | RPLP2P1 | 1
-0.941 | -3.65 | inactive | RPLP2P1 | 2
-0.942 | -3.66 | inactive | RPLP2P1 | 3
0.176 | 4.21 | inactive | SMARCAL1 | 1
0.669 | 7.68 | inactive | SMARCAL1 | 2
5.39 | 40.9 | active | SMARCAL1 | 3
-0.294 | 0.897 | inactive | FAM220BP | 1
-0.729 | -2.16 | inactive | FAM220BP | 2
-0.51 | -0.623 | inactive | FAM220BP | 3
0.0289 | 3.17 | inactive | TGFB1 | 1
0.608 | 7.25 | inactive | TGFB1 | 2
0.209 | 4.44 | inactive | TGFB1 | 3
-0.538 | -0.817 | inactive | KCNJ3 | 1
-1.01 | -4.13 | inactive | KCNJ3 | 2
-0.208 | 1.5 | inactive | KCNJ3 | 3
-0.951 | -3.72 | inactive | ZNF488 | 1
-0.0462 | 2.64 | inactive | ZNF488 | 2
-0.614 | -1.35 | inactive | ZNF488 | 3
0.501 | 6.49 | inactive | PRDM1 | 1
-0.285 | 0.961 | inactive | PRDM1 | 2
0.644 | 7.5 | inactive | PRDM1 | 3
-0.493 | -0.503 | inactive | MFN2 | 1
-0.476 | -0.38 | inactive | MFN2 | 2
-0.944 | -3.67 | inactive | MFN2 | 3
0.256 | 4.77 | inactive | ZNF781 | 1
1.42 | 13 | inactive | ZNF781 | 2
-0.53 | -0.761 | inactive | ZNF781 | 3
1.19 | 11.3 | inactive | MKRN3 | 1
-0.587 | -1.16 | inactive | MKRN3 | 2
3.65 | 28.7 | inactive | MKRN3 | 3
-1.06 | -4.5 | inactive | EMC9 | 1
0.0358 | 3.22 | inactive | EMC9 | 2
0.784 | 8.48 | inactive | EMC9 | 3
-0.675 | -1.78 | inactive | ZSCAN26 | 1
-0.649 | -1.6 | inactive | ZSCAN26 | 2
-0.198 | 1.57 | inactive | ZSCAN26 | 3

Sorted by “G2 robust z-score” (ascending): 6 of the entries above
G2 robust z-score | G2 cells, % of GMNN control | Outcome | Target gene | reagent no.
-1.01 | -4.13 | inactive | KCNJ3 | 2
-0.951 | -3.72 | inactive | ZNF488 | 1
-0.538 | -0.817 | inactive | KCNJ3 | 1
-0.208 | 1.5 | inactive | KCNJ3 | 3
0.209 | 4.44 | inactive | TGFB1 | 3
0.608 | 7.25 | inactive | TGFB1 | 2

The list goes on.
G2 robust z-score | G2 cells, % of GMNN control | Outcome | Target gene | reagent no.
1.19 | 11.4 | inactive | EMX2 | 1
1.96 | 16.7 | inactive | EMX2 | 2
-0.837 | -2.92 | inactive | EMX2 | 3
1.56 | 13.9 | inactive | DHX9-AS1 | 1
0.463 | 6.23 | inactive | DHX9-AS1 | 2
0.454 | 6.16 | inactive | DHX9-AS1 | 3
2.01 | 17.1 | inactive | ZRANB1 | 1
-0.891 | -3.3 | inactive | ZRANB1 | 2
-1.38 | -6.75 | inactive | ZRANB1 | 3
1.84 | 15.9 | inactive | RPL32P36 | 1
2.15 | 18.1 | inactive | RPL32P36 | 2
1.84 | 15.9 | inactive | RPL32P36 | 3
-0.142 | 1.97 | inactive | CD300E | 1
3.7 | 29 | inactive | CD300E | 2
-1.73 | -9.18 | inactive | CD300E | 3
0.972 | 9.81 | inactive | RRM1 | 1
1.92 | 16.5 | inactive | RRM1 | 2
1.91 | 16.4 | inactive | RRM1 | 3
7.54 | 56 | active | COQ5 | 1
-1.01 | -4.11 | inactive | COQ5 | 2
-0.633 | -1.49 | inactive | COQ5 | 3
-0.657 | -1.66 | inactive | C1QTNF9 | 1
1.48 | 13.4 | inactive | C1QTNF9 | 2
-0.932 | -3.59 | inactive | C1QTNF9 | 3
